Where “and” joins values, the source holds several entries; their conditions need not be identical. Equal entries are not always repeated. The whole screen tested about 400,000 compounds, of which about 5,500 (1.4%) were called active. The inconclusive results got no clear call from the source; some entries with a clear call stand among them for comparison. Calls come from the whole dose curve; as a rule, active = well fitted cell-killing curve with a large enough effect; inconclusive = small, poorly fitted or top-dose-only effect, or effect the other way; inactive = flat fitted curve, though single readings scatter. Potencies beside an inconclusive call are fits to weak or partial responses and may not hold up.
Assay: qHTS assay for MDR1-selective chemotherapeutics: Primary screen using the parental adenocarcinoma cell KB-3-1; note: nearly all actives have a fitted effect of over 60% in size
Settings: KB-3-1 viability, CellTiter-Glo ATP luminescence, 72 h; activity change, negative = cytotoxic: at 46.1 µM (top of the series)
Outline: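 Cytotoxicity in the drug-sensitive parental line KB-3-1 was scored as loss of CellTiter-Glo luminescence following 72 h incubation with compound. Values come from curve fitting of normalized concentration-response data.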
% is set by controls: 0 for no effect and ±100 for the full control effect; potency is the fitted concentration of half-maximal effect.

Row | Structure (SMILES) | Potency | activity change, negative = cytotoxic
1 | CC(C)(C)c1ccc(C(=O)CCC(=O)NCc2ccccc2)cc1 | inconclusive: 29.1 µM [cytotoxic, single point] | –
2 | COc1ccccc1N1CCN(Cc2cnc3ccc(Cl)cn23)CC1 | inconclusive: 23.1 µM [cytotoxic, partial curve, poor fit] | –
3 | O=[N+]([O-])c1ccc(N=Nc2ccc(O)c3ccccc23)cc1 | inconclusive: 18.4 µM [cytotoxic, single point] | –
4 | O=C(NCCc1ccc(F)cc1)C(=O)NCC1CCCN1S(=O)(=O)c1cccs1 (stereo not drawn) | inconclusive: 16.4 µM [cytotoxic, single point] | –
5 | COC(=O)C1(C(=O)OC)C[C@H](c2ccccc2)N(Cc2ccccc2OC)[C@@H]1c1ccccc1 | inconclusive: 14.6 µM [cytotoxic, partial curve] | –
6 | O=C(Nc1ccc2sccc2c1)c1ccc(Cl)s1 | – | inactive: -2.4%
7 | CCc1nc2c(OCC=C(C)C)cccn2c1N(C)C(=O)c1ccc(OC)cc1 | inconclusive: 29.1 µM [cytotoxic, single point] | –
8 | C/C(=N\NC(=O)c1ccc(NS(=O)(=O)c2cccs2)cc1)c1ccccc1 | – | inactive: 7.45%
9 | COc1ccc(NC(=O)C#Cc2ccccc2)cc1 | active: 20.6 µM | –
10 | O=C(Nc1ccc(F)cc1)C(Sc1nc2ccccc2[nH]1)c1ccccc1 (stereo not drawn) | inconclusive: 29.1 µM [cytotoxic, single point] | –
11 | O=C1CCC(C(=O)N2CCN(c3ccccc3)CC2)CN1Cc1ccc(Cl)cc1 (stereo not drawn) | – | inactive: 4.09%
12 | C=CCn1c(NC(=O)c2ccccc2Cl)c(C#N)c2nc3ccccc3nc21 | inconclusive: 13 µM [cytotoxic, partial curve, poor fit] | –
13 | CCN(CC)S(=O)(=O)c1cc(NC(=O)CSc2nc3c(cc2C#N)C(=O)CC(C)(C)C3)ccc1C | inconclusive: 20.6 µM [cytotoxic, partial curve, poor fit] | –
14 | CCOC(=O)c1c(NC(=O)CSc2nc3ccccc3[nH]2)sc2c1CC(C)(C)NC2(C)C | inconclusive: 29.1 µM [cytotoxic, single point] | –
15 | CCCn1c(C)nc2cc(Cl)c(N3CCN(c4nc(-c5ccc(C)cc5)cs4)CC3)cc21 | inconclusive: 29.1 µM [cytotoxic, single point] | –
16 | O=[N+]([O-])c1ccc(C(O)CN=Cc2ccc(O)cc2O)cc1 (stereo not drawn) | – | inactive: 1.64%
17 | Cc1ccc(-n2c(=O)c3c(c4cc(C)ccc4n3C)n(CC(=O)NCCC3=CCCCC3)c2=O)cc1 | – | inactive: 0.339%
18 | Cc1cc(NC(=O)CSc2nc(-c3cccs3)cc(C(F)(F)F)n2)no1 | active: 1.64 µM | –
19 | COc1ccc(OC)c(NC(=O)c2c(NC(=O)CCC(=O)O)sc3c2CCCCC3)c1 | – | inactive: -0.217%
20 | O=C(CSc1n[nH]c(-c2ccccn2)n1)Nc1ccccc1F | inconclusive: 29.1 µM [cytotoxic, single point] | –
21 | CCc1ccc(NC(=O)C2CCN(S(=O)(=O)c3cccs3)CC2)cc1 | inconclusive: 29.1 µM [cytotoxic, single point] | –
22 | Cc1c(NC(=O)c2cccc(S(=O)(=O)N(C)c3ccccc3)c2)c(=O)n(-c2ccccc2)n1C | – | inactive: 4.29%
23 | CCOc1ccc(CCN2C(=O)C(=O)N([C@@H](Cc3ccccc3)CN3CCC[C@H]3CN3C(=O)C(=O)NC[C@@H]3Cc3ccccc3)C[C@@H]2Cc2ccc(O)cc2)cc1 | inconclusive: 18.4 µM [cytotoxic, single point] | –

Reformatted tab-delimited: 16 of the compounds above
Row	Structure (SMILES)	Potency	activity change, negative = cytotoxic
3	O=[N+]([O-])c1ccc(N=Nc2ccc(O)c3ccccc23)cc1	inconclusive: 18.4 µM [cytotoxic, single point]	–
4	O=C(NCCc1ccc(F)cc1)C(=O)NCC1CCCN1S(=O)(=O)c1cccs1 (stereo not drawn)	inconclusive: 16.4 µM [cytotoxic, single point]	–
5	COC(=O)C1(C(=O)OC)C[C@H](c2ccccc2)N(Cc2ccccc2OC)[C@@H]1c1ccccc1	inconclusive: 14.6 µM [cytotoxic, partial curve]	–
6	O=C(Nc1ccc2sccc2c1)c1ccc(Cl)s1	–	inactive: -2.4%
7	CCc1nc2c(OCC=C(C)C)cccn2c1N(C)C(=O)c1ccc(OC)cc1	inconclusive: 29.1 µM [cytotoxic, single point]	–
8	C/C(=N\NC(=O)c1ccc(NS(=O)(=O)c2cccs2)cc1)c1ccccc1	–	inactive: 7.45%
9	COc1ccc(NC(=O)C#Cc2ccccc2)cc1	active: 20.6 µM	–
10	O=C(Nc1ccc(F)cc1)C(Sc1nc2ccccc2[nH]1)c1ccccc1 (stereo not drawn)	inconclusive: 29.1 µM [cytotoxic, single point]	–
11	O=C1CCC(C(=O)N2CCN(c3ccccc3)CC2)CN1Cc1ccc(Cl)cc1 (stereo not drawn)	–	inactive: 4.09%
12	C=CCn1c(NC(=O)c2ccccc2Cl)c(C#N)c2nc3ccccc3nc21	inconclusive: 13 µM [cytotoxic, partial curve, poor fit]	–
13	CCN(CC)S(=O)(=O)c1cc(NC(=O)CSc2nc3c(cc2C#N)C(=O)CC(C)(C)C3)ccc1C	inconclusive: 20.6 µM [cytotoxic, partial curve, poor fit]	–
14	CCOC(=O)c1c(NC(=O)CSc2nc3ccccc3[nH]2)sc2c1CC(C)(C)NC2(C)C	inconclusive: 29.1 µM [cytotoxic, single point]	–
15	CCCn1c(C)nc2cc(Cl)c(N3CCN(c4nc(-c5ccc(C)cc5)cs4)CC3)cc21	inconclusive: 29.1 µM [cytotoxic, single point]	–
16	O=[N+]([O-])c1ccc(C(O)CN=Cc2ccc(O)cc2O)cc1 (stereo not drawn)	–	inactive: 1.64%
17	Cc1ccc(-n2c(=O)c3c(c4cc(C)ccc4n3C)n(CC(=O)NCCC3=CCCCC3)c2=O)cc1	–	inactive: 0.339%
18	Cc1cc(NC(=O)CSc2nc(-c3cccs3)cc(C(F)(F)F)n2)no1	active: 1.64 µM	–

(list continues)

Row | Structure (SMILES) | Potency | activity change, negative = cytotoxic
24 | O=C1C[C@@H]2c3c(cccc3CN1Cc1ccccc1Br)C[C@@H](O)[C@H]2O | inactive | –
25 | COc1ccc(NC2=C(NCCO)C(=O)c3ccccc3C2=O)cc1 | inconclusive: 20.6 µM [cytotoxic, partial curve, poor fit] | –
26 | NC(=S)N=Nc1c(O)n(C2OC(=O)c3ccccc32)c2ccccc12 (stereo not drawn) | – | inconclusive: 33.7%
27 | CCCN1C(=O)c2ccccc2NC1c1ccc(O)c(OCC)c1 (stereo not drawn) | – | inactive: 5.84%
28 | COc1cc(-c2cnc3c(NC=O)cc(-c4ccc(S(C)(=O)=O)cc4)cn23)cc(OC)c1OC | inconclusive: 29.1 µM [cytotoxic, single point] | –
29 | Cc1[nH]c(C)c(S(=O)(=O)NCc2ccc(F)cc2)c1C(=O)N1CCCCC1 | – | inactive: -11.8%
30 | N#C/C(=C\c1ccc(OCc2ccccc2)cc1)C(=O)Nc1nc2c(s1)CCN(Cc1ccccc1)C2 | inconclusive: 29.1 µM [cytotoxic, single point] | –
31 | CC1CCN(C(=S)c2cn(Cc3ccc(F)cc3)c3ccccc23)CC1 | inconclusive: 29.1 µM [cytotoxic, single point] | –
32 | Cc1cccc(-n2cc(C#N)c(=O)[nH]c2=O)n1 | inconclusive: 32.6 µM [cytotoxic, partial curve, poor fit] | –
33 | CCCCNc1c(-c2ccc(SC3CCCCC3)cc2)nc2ccccn12 | inconclusive: 18.4 µM [cytotoxic, single point] and inconclusive: 29.1 µM [cytotoxic, single point] | –
34 | CN(C)CCCN(C(=O)c1ccc(Cl)s1)c1nc2cc3c(cc2s1)OCO3 | – | inactive: -2.82%
35 | COc1ccc(-c2n[nH]c3c2C(c2ccc(Cl)cc2Cl)NC3=O)cc1 (stereo not drawn) | – | inactive: -4.02%
36 | C#CCN(C[C@@H]1[C@@H](OC(=O)NCc2ccco2)[C@@H](OC(=O)NCc2ccco2)Cn2c(=O)ccc(=O)n21)S(=O)(=O)c1ccc(C)cc1 | active: 16.4 µM | –
37 | Cc1ccc(N2CCN(S(=O)(=O)c3ccc4c(c3)n(C)c(=O)c(=O)n4C)CC2C)cc1 (stereo not drawn) | inconclusive: 20.6 µM [rising, partial curve, poor fit] | –
38 | CC(=O)c1sc(Nc2ccc3c(c2)OCO3)nc1C | inconclusive: 25.9 µM [cytotoxic, single point] | –
39 | CCOc1cccc(C(=O)Nc2ccc3oc(-c4ccc(C(C)(C)C)cc4)nc3c2)c1 | inconclusive: 20.6 µM [cytotoxic, single point] | –
40 | Cc1ccc(S(=O)(=O)Nc2ccc(-c3ccc(N4CCCCCC4)nn3)cc2)cc1C | inconclusive: 11.6 µM [rising, partial curve] | –
41 | COc1ccc(C(=O)N(CCc2ccccc2)Cc2ccccc2)c(OC)n1 | inconclusive: 25.9 µM [cytotoxic, single point] | –
42 | COc1ccccc1S(=O)(=O)N1CCn2cccc2C1C (stereo not drawn) | – | inactive: 9.29%
43 | COc1ccc(Br)c(Cn2c(C)c(C(=O)NCCC#N)sc2=O)c1 | – | inactive: 6.37%
44 | CCCCN(C(=O)c1cc(S(=O)(=O)N2CCCCCC2)ccc1OC)c1ccccc1 | inconclusive: 20.6 µM [cytotoxic, single point] | –
45 | N=c1c(C(=O)NCC2CCCO2)cc2c(=O)n3ccccc3nc2n1C1CCCC1 (stereo not drawn) | – | inactive: 19.7%
46 | CCn1c(/C=C/c2ccc([N+](=O)[O-])o2)nc2ccccc2c1=O | active: 3.26 µM | –

Row | Structure (SMILES) | Potency | activity change, negative = cytotoxic
47 | COc1cc(CNC2CCCC2)cc(Cl)c1OCc1ccc(F)cc1 | inconclusive: 18.4 µM [cytotoxic, single point] | –
48 | COc1ccc(C(=O)N/N=C/c2cccnc2)cc1 | – | inactive: 14.2%
49 | COC(=O)C1CCN(C(=O)Nc2ccc(OC)cc2)CC1 | – | inactive: 3.47%
50 | COc1ccc([C@H]2C[C@H](O)[C@@H](n3cc(COC(=O)c4ccccc4)nn3)CN2CC2CCCCC2)cc1 | inconclusive: 29.1 µM [cytotoxic, single point] | –
51 | Cc1ccc(C(C)C)c(OCCNC(=S)Nc2cccc3ccccc23)c1 | inconclusive: 35.5 µM [cytotoxic, single point] | –
52 | COC(=O)c1cc(NC(=O)c2ccccc2)c(=O)oc1C | – | inactive: -4.46%
53 | CCOc1ccc(-c2cc(C(=O)NCc3ccc(OCC)c(OC)c3)[nH]n2)cc1 | inconclusive: 0.0164 µM [rising, full curve] | –
54 | Oc1ccc(Cl)c(CN2CCN(c3ncc(Cc4ccccc4)cn3)CC2)c1 | inconclusive: 29.1 µM [cytotoxic, single point] | –
55 | CC(C)c1ccc(C(=O)N2CCCCC2c2cc(C(=O)Nc3ccncc3)no2)cc1 (stereo not drawn) | – | inactive: -0.0259%
56 | O=C(N/N=C/c1cn(CCOc2ccccc2)c2ccccc12)c1ccncc1 | – | inactive: -4.88%
57 | COc1ccc(-c2nc(N/N=C(\C)c3ccc(O)cc3)c3ccccc3n2)cc1 | inconclusive: 29.1 µM [cytotoxic, single point] | –
58 | CCC(CC)C(=O)c1c[nH]c(C(=O)NCc2cccnc2)c1 | – | inactive: -3.67%
59 | COc1ccc(-n2cc(-c3ccc(Br)cc3)[nH]c2=S)cc1 | – | inactive: 3.94%
60 | Cc1cccc(C)c1N=Nc1c(C)cc(O)cc1C | inconclusive: 18.4 µM [cytotoxic, single point] | –
61 | Cc1cc(NC(=O)CN(C)S(=O)(=O)c2ccc3c(c2)CCCC(=O)N3)ccc1Br | inconclusive: 10.3 µM [cytotoxic, partial curve, poor fit] | –
62 | O=C1OCC2=C1C(c1ccc(F)cc1)c1cc3c(cc1N2)OCO3 (stereo not drawn) | active: 0.0366 µM | –
63 | CCCc1cc2c(=O)c(-c3ccc4c(c3)OCCO4)coc2cc1OS(C)(=O)=O | inconclusive: 18.4 µM [cytotoxic, single point] | –
64 | Cc1ccccc1NC(=O)N1CCN(c2ncccn2)CC1 | inconclusive: 29.1 µM [rising, single point] | –
65 | COc1ccccc1N1CCN(C2=Nc3cccc4cccc2c34)CC1 | inconclusive: 8.2 µM [cytotoxic, partial curve] | –
66 | COc1cc(-c2nc(Cn3nnc(C(=O)Nc4ccccc4C)c3C)c(C)o2)cc(OC)c1OC | – | inactive: -9.75%
67 | S=C(c1ccccc1)N(c1ccccc1)c1ccccc1 | inconclusive: 23.1 µM [cytotoxic, partial curve, poor fit] | –
68 | N#Cc1c(NCCN)nc(-c2ccco2)c2c1CCCC2 | inconclusive: 29.1 µM [cytotoxic, single point] | –

From PubChem BioAssay AID1347075 (National Center for Advancing Translational Sciences (NCATS), 2019)
